Among the data in PMC7819943, “Rice protein-binding microarrays: a tool to detect cis-acting elements near promoter regions in rice” are binding signal values, retold here.

Sequences of proteins named here, by UniProt entry; tags and fusion partners are left off.
UniProt Q0JBA9, entry or part of it: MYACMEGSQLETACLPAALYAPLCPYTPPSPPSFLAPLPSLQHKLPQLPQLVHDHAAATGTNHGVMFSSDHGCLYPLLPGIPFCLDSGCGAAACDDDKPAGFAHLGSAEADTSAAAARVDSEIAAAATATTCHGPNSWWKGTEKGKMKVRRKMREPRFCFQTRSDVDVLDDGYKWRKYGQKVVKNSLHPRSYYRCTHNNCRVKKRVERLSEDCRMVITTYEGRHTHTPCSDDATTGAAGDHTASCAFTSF

The other results are listed elsewhere or left out.

The test addresses OsWRKY34 (Oryza sativa, UniProt Q0JBA9 1-250). Kind of test: protein-binding microarray (RPBM); PBS, 2% BSA, 51.3 ng/ul salmon testes DNA, 50 uM zinc acetate, 200 nM TF, 25 C, 1 h; high values mean tight binding. The following applies: protein: recombinant; tags: N-terminal polyhistidine and DsRed monomer fusion (pET32a); label: CyDye5-dUTP incorporated in the synthesized complementary strand; 3' TTTTT single-stranded linker to array surface; dsDNA, one strand shown. In a few lines:
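Ni–NTA purification followed expression in E. coli BL21-CodonPlus of transcription factors fused N-terminally to a polyhistidine tag and DsRed. At 200 nM in PBS with 2% BSA, salmon testes DNA and 50 µM zinc acetate, the protein was incubated for 1 h at 25 °C with a custom Agilent array that had been primer-extended with Cy5-dUTP and blocked with 2% BSA. After washing, the array was read on an Axon 4000B scanner. The binding signal is per-feature fluorescence intensity in arbitrary units.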
With “CACCGCTGGCCGCCACTCCATTCCTCAGCTTTGCTTCCGGCGGAGTCACCTAGTGCAG”, the binding signal was 10000 fluorescence intensity (a.u.).
The same measure for “CTGAACATGTTGTTCAGTTGGCCTCGTTTTCTCACCTTTGCGGAGTCACCTAGTGCAG”: 9320 fluorescence intensity (a.u.); for “GAATTAAGTCTATTTTCGATCCTTGTAGTATTTTTATTGACGGAGTCACCTAGTGCAG”: 9450 fluorescence intensity (a.u.); for “CTTGTGTCTCATCTCCGCCGCCCCTCGCCTCCTCGTCCTCCGGAGTCACCTAGTGCAG”: 11000 fluorescence intensity (a.u.).
The same measure for “CTTAGGGTCGGGAAGGGGAGAGGCGGTGGCGGGCGGCTGACGGAGTCACCTAGTGCAG”: 13400 fluorescence intensity (a.u.).
The same measure for “CTGTTTGACCACAGCAAAGGACCGTGATCCCCATCATCCACGGAGTCACCTAGTGCAG”: 10200 fluorescence intensity (a.u.).
For the sequence “GGTGGCTGGAGATGATAGAGATGGGCACGTTTACTTCCTCCGGAGTCACCTAGTGCAG”, the binding signal was 8360 fluorescence intensity (a.u.).
The same measure for “TTTTACGTCGTCCGATCCGTCCATTGCTCCATTGCTGACGCGGAGTCACCTAGTGCAG”: 8170 fluorescence intensity (a.u.).
Consider “GCAAAGCTGTTGCCCGAGCCATGGCCACCCACAAGCTCGACGGAGTCACCTAGTGCAG”, for which the binding signal was 8080 fluorescence intensity (a.u.).
On to “TCCTGAGATATTAGGGTTTGGGTAATTTGGGTACAGATAGCGGAGTCACCTAGTGCAG”, for which the binding signal was 9070 fluorescence intensity (a.u.).
The same measure for “ACCGCCGGCGCCGGCTCCTCCACCCCGTCGCCCGGTTCGACGGAGTCACCTAGTGCAG”: 8270 fluorescence intensity (a.u.); for “AATCTCTTCTTGATTACTCCCTCCGTTTTCTAAATATTTACGGAGTCACCTAGTGCAG”: 9000 fluorescence intensity (a.u.); for “GGAATGTAGTCTACTCATATGCTTTCTGTGGTGCATTCTACGGAGTCACCTAGTGCAG”: 9090 fluorescence intensity (a.u.).
For the sequence “GCATGATCTGTGATGCATCTTTTGTTCCAAATTGTAGACTCGGAGTCACCTAGTGCAG”, the binding signal is 9280 fluorescence intensity (a.u.).
Next, “GCAACGTGACTCCACACTCTTTTGTTCGTTACCCATTCCACGGAGTCACCTAGTGCAG”: 15900 fluorescence intensity (a.u.); “CATCGTTAGTACAGCAATCTTTCAGGTGAGTTTTTTTTTCCGGAGTCACCTAGTGCAG”: 9710 fluorescence intensity (a.u.); “GTTTACCACGGTGTGCTTTGCTCTCTTGCCTCTCCTGTCTCGGAGTCACCTAGTGCAG”: 9160 fluorescence intensity (a.u.).
Next, “TGCTTACATCATTCTGCGTTTATGGGTTCTCACTTTAGCTCGGAGTCACCTAGTGCAG”: 9870 fluorescence intensity (a.u.).
Turning to “CTTCTTCGCCGTCTCCGATCTGGAACTTCACCGCCGCCGCCGGAGTCACCTAGTGCAG”, the binding signal is 10100 fluorescence intensity (a.u.).
Next, “AATGCTCGAAACAGGTTCCTACCTACTACTTTTGTTTCAGCGGAGTCACCTAGTGCAG”: 8020 fluorescence intensity (a.u.); “TCTTCCATCTCCTAATCTTCCCCTAACAAGTCCTAGCTAACGGAGTCACCTAGTGCAG”: 8410 fluorescence intensity (a.u.).
Next, “GGTTGTCGACAAGGTACTCGTTGGTTGTCCAGAATATTTTCGGAGTCACCTAGTGCAG”: 8120 fluorescence intensity (a.u.); “TCATCTTCCCACTTATGTTTATATTATATTTATTAATCATCGGAGTCACCTAGTGCAG”: 8400 fluorescence intensity (a.u.); “GGTGGGTGGTGTCCGGGGTGGCGTTCTGGTGGACGGCGTTCGGAGTCACCTAGTGCAG”: 14200 fluorescence intensity (a.u.).
As to “CCTTCTTGATGACTTCATGTTCTTTTCTAAGTCATGTTAGCGGAGTCACCTAGTGCAG”, the binding signal is 12200 fluorescence intensity (a.u.).
As for “GGGAGACGCGGGTATTTGAACGCGCGGAGGGGAGGGGAGACGGAGTCACCTAGTGCAG”, the binding signal is 11500 fluorescence intensity (a.u.).
“GCCTTGGTGCAATTCACCTTTTCTTTGGTGCGATAAAATGCGGAGTCACCTAGTGCAG”: the binding signal is 9240 fluorescence intensity (a.u.).
In the case of “GTAGCCGAACACACCCATACATATTCTACTAATTTAAATACGGAGTCACCTAGTGCAG”, the binding signal is 8210 fluorescence intensity (a.u.).
Next, “GCGATGTCCATGTTGATTTCCGGCCGGTCGCTCCATTGTCCGGAGTCACCTAGTGCAG”: 11100 fluorescence intensity (a.u.).
As for “GCATCATTGGAAGTGTAGAGTTTGCATTTATCCGTTTTCTCGGAGTCACCTAGTGCAG”, the binding signal was 8170 fluorescence intensity (a.u.).
In the case of “GATACTGTTCTCATTTGCCATTTTAGTAATATGCCACTTCCGGAGTCACCTAGTGCAG”, the binding signal was 12000 fluorescence intensity (a.u.).
In the case of “TGTGTCTTTCATCTCGTTCGTCTCGAGCAGGCGGTTAACCCGGAGTCACCTAGTGCAG”, the binding signal is 9780 fluorescence intensity (a.u.).
Next, “AGTGGGCCTGACTAATACTGTTTTTTTTTCCTTTTAATTTCGGAGTCACCTAGTGCAG”: 9440 fluorescence intensity (a.u.); “GAGGCGACTTTTTTTTGTGCTCTTTCTTTTACATATACCCCGGAGTCACCTAGTGCAG”: 9150 fluorescence intensity (a.u.).
The same measure for “ACGCCAACCCGGATTCAAAACCTTTCCGCTACATTGACTGCGGAGTCACCTAGTGCAG”: 8360 fluorescence intensity (a.u.).
With “AAAAATCCAGACGCCGCGATGGGGTTGGGTTGGGTACTTGCGGAGTCACCTAGTGCAG”, the binding signal is 12000 fluorescence intensity (a.u.).
Next, “TAATCATTGTAGTATTTCCTTTTTTTCTGTGTGTTGGGAACGGAGTCACCTAGTGCAG”: 13500 fluorescence intensity (a.u.); “TCCATCGGTTCTCTGCTCTGTTCATCCATAGAGTTTCCTCCGGAGTCACCTAGTGCAG”: 8250 fluorescence intensity (a.u.); “CGCCGTTGACTTTTTCTCACATGTTTGACCATTCGTCTTACGGAGTCACCTAGTGCAG”: 42500 ± 475 fluorescence intensity (a.u.).
As to “GGCTGGCTGGGTCGGTCGGGTTCTTTCTTGATCTGCATTTCGGAGTCACCTAGTGCAG”, the binding signal is 10800 fluorescence intensity (a.u.).
Next, “ATAATAATATTTTTCACCTATGCCATACTTCTTTTGTCAACGGAGTCACCTAGTGCAG”: 8040 fluorescence intensity (a.u.).
The same measure for “TCGGTCAGTAACTCCCTGGCCCACCACCACTCTTCTTTGGCGGAGTCACCTAGTGCAG”: 8320 fluorescence intensity (a.u.).
